PubChem BioAssay AID1159584 – Peter MacCallum Cancer Centre, 2016

Aim: 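Genes that CDH1-null MCF10A cells selectively depend on to survive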 (primary screen)
Cells: human MCF10A breast epithelial cells, parental and CDH1-null
Reagent: siRNA against human genes
Detection: 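ATP luminescence (CellTiter-Glo) viability per line relative to mean mock wells over all plates, and the ratio of CDH1-null to parental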
Direction: CDH1-null / parental viability ratio: higher = CDH1-null cells survive relatively better than parental
Shown is one part, drawn at random, of about 18,000 deposited reagents. Further read-outs or replicates are left out here. Not given: the amount of reagent, the time to read-out.

gene | CDH1-null / parental viability ratio
POLDIP3 | 0.94
EMC10 | 1.11
EVA1C | 1.13
MINK1 | 0.78
MRPL18 | 1.14
NDUFB3 | 0.76
TNFRSF4 | 1.14
NUDT13 | 0.85
CCDC110 | 1.15
MYL6B | 0.78
CRHBP | 0.94
OR4E2 | 0.86
PTER | 1.05
RRP36 | 1.03
CGN | 1.22
SCAI | 1.22
ZC3H12B | 1.26
LRATD2 | 0.74
CASP14 | 1.11
HSD3B7 | 0.91
FZD9 | 0.89
VAMP1 | 1.25
HTR3D | 1.05
VPS50 | 0.68
EXOC7 | 0.97
RPGRIP1 | 0.86
ZNF804B | 0.73
EVI2A | 1.86
AFDN | 0.78
COL25A1 | 1.21
HMGN3 | 1.18
ZNF124 | 1.24
ZNF322 | 1.5
OR6X1 | 0.95
PCDHB11 | 1.15
ADORA3 | 0.74
FCRL1 | 0.96
INPP5K | 1.15
APCDD1 | 0.98
SPATA17 | 1.05
GPR108 | 1.65
UBC | 0.91
TSPYL1 | 0.8
KLHL12 | 1.07
TBC1D3B | 1
STX8 | 1.03
BEST1 | 0.77
BROX | 0.98
DNAAF4 | 0.84
KRTAP4-1 | 1.12
EIPR1 | 1.02
ANO10 | 1.17
MCRS1 | 0.96
PCTP | 1
DDX5 | 0.98
ZNF560 | 1.16
WNT9A | 0.95
FUS | 0.79
CRYZ | 1.09
MPV17 | 1.19
POU2F3 | 1.06
MYL3 | 0.89
LASP1 | 1.21
ALKBH1 | 1.07
DCBLD2 | 0.85
PPP1R10 | 0.8
LRP2BP | 1.58
GLB1 | 1.04

Individual results from above:
NUDT13, CDH1-null / parental viability ratio: 0.85
Entry for OR6X1 in “CDH1-null / parental viability ratio”: 0.95
HMGN3, CDH1-null / parental viability ratio: 1.18
